Assay results: PubChem BioAssay AID2685 (National Center for Advancing Translational Sciences (NCATS), 2010)
Screen size: about 320,000 compounds; about 2,100 (0.66%) were called active. Inconclusive results, whose numbers are uncertain, are shown with a selection of clear calls. Calls follow the shape of the dose curve; as a rule, active = well fitted inhibition curve with a large enough effect in the signal ratio, with a control signal flat (not every such curve was filed as active); inconclusive = small, poorly fitted or top-dose-only effect, or effect the other way, or a change in a side signal; inactive = flat fitted curve, though single readings scatter; the % refers to the signal ratio. A potency beside an inconclusive call is a rough fit, not a confirmed value.

Experiment: qHTS Assay for Lipid Storage Modulators in Drosophila S3 Cells
Conditions: BODIPY lipid droplet fluorescence, 18-24 h, cells fed with added oleic acid; lipid storage change, negative = inhibition: at 46.1 µM (top of the series) unless noted
Procedure, shortened: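 Laser-scanning cytometry quantifies lipid droplet accumulation (500–530 nm total intensity; droplet/cell object ratio) in oleic acid-fed (400 uM added) Drosophila S3 cells treated with a concentration series. 20 uM Triacsin C defined 100% inhibition.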
% is scaled to controls: 0 for no effect and ±100 for the full control effect; potency is read from the fitted curve at half-maximal effect.

Compound	Potency	lipid storage change, negative = inhibition	outcome
CCCCOCCOCCOCCCC	inconclusive: 23.1 µM [activator, single point]		
CCC(=O)N/N=C/c1ccc(OS(=O)(=O)c2ccccc2)cc1	inconclusive: 7.31 µM [activator, partial curve]		
Cc1cccc(N2CN=C3SCC(=O)N3C2)c1		inconclusive: -0.803%	
COc1ccc(/C=C(\NC(=O)c2ccc(OC)c(OC)c2)C(=O)N2CCN(C)CC2)cc1		inconclusive: -191%	
CC(=O)c1ccc(-n2c(CCC(=O)O)ccc2-c2ccccc2)cc1		inconclusive: 14.3%	
O=C(C1CC1)N1N=C(C2CCCCC2)CC1(O)C(F)(F)F (stereo not drawn)		inconclusive: -16.5%	
Cc1ccc2[nH]c(=O)c(CN3CCCCC3)c(-c3ccccc3)c2c1		inconclusive: -3.3%	
Cc1cc(C(=O)NC2Cc3ccccc3C2)c(C)o1		inconclusive: -10.5%	
C=C(C)c1cccc(C(C)(C)NC(=O)NC2CCN(Cc3ccccc3)CC2)c1		inconclusive: 15.2%	
Cc1ccc(S(=O)(=O)N/N=C/c2ccc(OCC(=O)Nc3ccccc3Cl)cc2)cc1		inconclusive: -23.5%	
O=C(NNS(=O)(=O)c1ccccc1)c1ccncc1		inconclusive: -131%	
COc1ccc(-c2cc(CCCC(=O)N3CCN(c4ccc(OC)cc4)CC3)no2)cc1		inconclusive: -0.153%	
CCN(C(=O)CSc1nnc(Cc2cccc3ccccc23)n1N)C1CCS(=O)(=O)C1 (stereo not drawn)		inconclusive: 39.2%	
Cc1cc(C)n2cc(-c3ccc(Cl)cc3)c(C(=O)O)c2n1	inconclusive: 6.51 µM [cytotoxic, single point]		
CN(C)c1cc(N/N=C/c2ccccc2C(F)(F)F)nc(N(C)C)n1		inconclusive: 33.2%	
O=C(Nc1ccccc1)NC1CCN(CCCN2C(=O)c3ccccc3C2=O)CC1		inconclusive: -15.7%	
Cc1ccc(NC(=O)CC2Oc3ccc(C)cc3NC2=O)cc1 (stereo not drawn)		inconclusive: -2.82%	
Cc1ccc2c(c1)nnn2C1CCN(CC(=O)N2CCN(c3ccc(F)cc3)CC2)CC1	inconclusive: 29.1 µM [activator, single point]		
Nn1c(SCC(=O)N2CCc3ccccc3C2)nnc1-c1cccs1		inconclusive: 19.6%	
O=C(NNC(=O)c1cccc(O)c1)Nc1ccc([N+](=O)[O-])cc1	inconclusive: 25.9 µM [cytotoxic, single point]		
Cn1nc(-c2ccccc2)c2nc3ccccc3nc21		inconclusive: 12.4%	
C/C(=N\O)c1ccc2[nH]ccc2c1		inconclusive: 13.7%	
Cc1nn(Cc2ccccc2)c(=O)c2nn(-c3ccc(Cl)cc3)c(C)c12	inconclusive: 6.51 µM [cytotoxic, partial curve]		
COc1cc(C(=O)OCC(=O)c2ccc(S(=O)(=O)N3CCCCC3)cc2)cc(OC)c1OC		inconclusive: -8.99%	
CC(C)=CCC/C(C)=C/C=N/NC(=O)c1ccccc1[N+](=O)[O-]		inconclusive: 14.6%	
O=S(=O)(c1cc(Cl)ccc1Cl)n1nnc2ccccc21	inconclusive: 29.1 µM [rising, single point]		
COc1cccc(NC(=O)CN(c2cccc(F)c2)S(C)(=O)=O)c1		inconclusive: 21.9%	

Single entries from above:
Value for Cc1cccc(N2CN=C3SCC(=O)N3C2)c1 under lipid storage change, negative = inhibition: inconclusive: -0.803%
Value for CN(C)c1cc(N/N=C/c2ccccc2C(F)(F)F)nc(N(C)C)n1 under lipid storage change, negative = inhibition: inconclusive: 33.2%

Going on with the list:

Compound	Potency	lipid storage change, negative = inhibition	outcome
CCCCCCO		inconclusive: 63.3%	
Cc1cc(NC(=O)Cn2cc([N+](=O)[O-])cn2)no1		inconclusive: 3.26%	
Cc1nn(S(=O)(=O)N2CCCCC2)c(C)c1Br		inconclusive: 16.9%	
COc1ccccc1C1(O)CCN(CC(=O)Nc2nc(-c3ccccc3)cs2)CC1	inconclusive: 11.6 µM [falling, partial curve, poor fit]		
Cc1ccccc1Nc1cc(C)c2c(O)cccc2n1		inconclusive: -19.1%	
COc1ccccc1C(=O)NC(CCSC)C(=O)NCCCn1nc(C)cc1C (stereo not drawn)		inconclusive: 17.7%	
CCc1c(C)[nH]n(-c2nc(-c3ccccc3)cs2)c1=O		inconclusive: 11%	
COc1cc(C(=O)NNC(=O)CNC(=O)c2ccc(Br)o2)cc(OC)c1OC	inconclusive: 0.116 µM [activator, full curve, poor fit]		
CC(C)(CSc1ccccn1)NS(=O)(=O)c1ccc(Cl)cc1		inconclusive: 4.49%	
CCOC(=O)c1cccc(NC(=O)C(NS(=O)(=O)c2ccc3c(c2)CCN3C(C)=O)C(C)C)c1 (stereo not drawn)			inactive [at 46.1 µM]
O=c1onc(-c2cccnc2)n1-c1ccccc1F		inconclusive: 13.1%	
CCOC(=O)Nc1ccc2c(c1)N(C(=O)CCN(CC)CC)c1ccccc1CC2		inconclusive: 54.5%	
O=C(CN1CC(c2ccccc2)CC1=O)OCc1ccccc1F (stereo not drawn)		inconclusive: -15.3%	
Cc1onc(-c2ccccc2Cl)c1C(=O)Nc1c(C)n(C)n(-c2ccccc2)c1=O		inconclusive: 36.3%	
O=C1CN(CC(=O)N2CCOCC2)c2ccccc2O1			inactive [at 46.1 µM]
CCCN(CC(=O)Nc1ccccc1OC)Cc1c(O)ccc2ccccc12	inconclusive: 29.1 µM [activator, single point]		
N#Cc1ccccc1CN1C(=O)S/C(=C/c2cccn2-c2ccc(C(=O)O)cc2)C1=O		inconclusive: 24%	
CCOC(=O)c1sc(NC(=O)CSc2nccn2C)nc1C		inconclusive: 3.81%	
CC(C)N(C(=O)CSc1nnc(C2CC2)n1C1CC1)c1ccccc1		inconclusive	
COc1ccc(CNC(=O)Cn2ccc(N)nc2=O)cc1		inconclusive: 11.8%	
Cc1cccc(S(=O)(=O)NCCC(=O)OC(C)C(=O)NC(=O)NC2CCCCC2)c1 (stereo not drawn)		inconclusive: 14%	
COc1ccc(S(=O)(=O)N2CCN(c3nc(-c4cccnc4)nc4ccccc34)CC2)cc1	inconclusive: 6.51 µM [activator, single point]		
N#C/C(C(=O)Oc1ccccc1)=C1\C=Cc2ccccc2N1		inactive: -11.1%	
Cc1ccc(-n2nc3ccc(N)cc3n2)cc1	inconclusive: 2.31 µM [activator, partial curve]		
C/C(=C\C(=O)O)C(=O)Nc1nccs1		inconclusive: -22.1%	
CN1CCN(CC#Cc2ccccc2)CC1CCO (stereo not drawn)		inconclusive: 3.21%	
